At least one structure is not confirmed: it was looked up by name or label, or the drawing left a doubt.
Test system: Bacillus stearothermophilus var. calidolactis
Assay: Delvotest microbiological test, 0.27 ml test medium, nutrients added as tablet, different volumes of milk
Type: cell-based
Conditions: 2.6 hours at 64° C.
Description: The arrangement can be used for detecting residues of antibiotics in milk. The commercially available Delvotest® and BR®-test are commonly used. Delvotest® comprises an agar matrix, CFU's of an acid forming microorganism, as well as a color indicator. With the arrangement mentioned above it is possible to automatically scan the bottom side of each of the samples in a test plate. The color and the brightness of the reflected light are registered in three variables, each describing one color component, for instance the so-called L*a*b* model. In the L*a*b* model, the color spectrum is divided in a two-dimensional matrix. The position of a color in this matrix is registered by means of the two variables “a” and “b”. The variable L indicates the intensity (for instance, from light blue to dark-blue). It is possible to make a criterion comprising the a-value, b-value and L-value to make a composite function as follows: Z=wL.L+wa.a+wb.b
where wL, wa and wb are weighting factors for the L-value, a-value and b-value, respectively. […] By combining two or more of the color components in the L*a*b* model in a predetermined manner that depends on the type of residue and the sample, an accurate detection is possible. In practice, a certain value of Z at which a test should switch between positive and negative result (the threshold value) can be experimentally predetermined.
As outlined in the detailed description, the following equation was used: Z=0.35.a+0.65.b. The explanation of the symbols used in the Figure is as follows.
A commercially available microbiological test system (Delvotest®) having 0.27 ml of test medium containing agar, CFU's of Bacillus stearothermophilus var. calidolactis, an antifolate, and the indicator Bromocresol Purple was investigated using milk with added penicillin G in concentrations of 0, 2, 3, 4 and 6 ppb. […]
Firstly, the colors were measured using the scanning apparatus described in the detailed description using the following formula for the Z-value: Z=0.35.a+0.65.b. […]

CC1(C)S[C@@H]2[C@H](NC(=O)Cc3ccccc3)C(=O)N2[C@H]1C(=O)O [penicillin G]
concentrations between which a color change was observed (visual inspection) (0.10 ml milk on 0.27 ml test medium): 3 and 4 | concentrations between which a color change was observed (visual inspection) (0.20 ml milk on 0.27 ml test medium): 2 and 3 | concentrations between which a color change was observed (visual inspection) (0.30 ml milk on 0.27 ml test medium): 1 and 2

Source: patent US20060134725A1, “Method for the determination of the presence of an antibiotic in a fluid” (priority 2003, published 2006)
